The record followed here is paper PMC8445599.

Chains of the proteins cited; added tags and fusions are not shown. Residues count along the entry.
UniProt P02545, residues 1-646: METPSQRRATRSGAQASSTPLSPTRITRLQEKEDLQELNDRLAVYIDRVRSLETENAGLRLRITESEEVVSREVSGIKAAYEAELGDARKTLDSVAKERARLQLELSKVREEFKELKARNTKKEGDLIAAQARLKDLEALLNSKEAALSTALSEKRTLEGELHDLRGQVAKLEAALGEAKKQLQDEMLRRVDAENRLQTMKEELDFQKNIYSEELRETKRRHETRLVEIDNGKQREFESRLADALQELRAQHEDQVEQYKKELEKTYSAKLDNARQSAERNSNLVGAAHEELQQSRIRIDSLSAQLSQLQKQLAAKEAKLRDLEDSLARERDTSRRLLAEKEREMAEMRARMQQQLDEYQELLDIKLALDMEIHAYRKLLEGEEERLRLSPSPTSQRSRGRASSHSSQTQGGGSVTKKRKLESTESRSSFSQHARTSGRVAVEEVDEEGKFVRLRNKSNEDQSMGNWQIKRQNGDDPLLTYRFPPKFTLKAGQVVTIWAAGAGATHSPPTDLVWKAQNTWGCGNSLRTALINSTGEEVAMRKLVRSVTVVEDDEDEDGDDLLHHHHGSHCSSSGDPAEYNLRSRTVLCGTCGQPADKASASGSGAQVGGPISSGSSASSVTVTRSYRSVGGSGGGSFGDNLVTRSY

Results are given in words; binding and its absence hold for the method and conditions named. In cells and extracts the contact can be indirect. Some binding calls cover weakened binding; strength is not graded here.

The target in test [1] is lamin A/C (endogenous) (human (endogenous in HeLa)) (UniProt P02545). Kind of test: co-IP; endogenous proteins; HeLa cells arrested at the G1/S boundary (1.5 mM hydroxyurea, 16 h); IP with anti-lamin A/C or anti-RepoMan antibody, western blot. Background: In western blotting, separated proteins are transferred to a membrane and probed.
Test [2] shares this target. The test is described as follows: co-IP; endogenous proteins; HeLa cells arrested in M phase (1 µg/ml nocodazole, 16 h); IP with anti-lamin A/C or anti-RepoMan antibody, western blot.
Test [3] has the same target. Kind of test: co-IP; endogenous proteins; asynchronous HeLa cells; IP with anti-lamin A/C or anti-RepoMan antibody, western blot.

B1: RepoMan (endogenous) (protein, UniProt Q69YH5 1-1023)
chain: MDANSKDKPPETKESAMNNAGNASFILGTGKIVTPQKHAELPPNPCTPDTFKSPLNFSTVTVEQLGITPESFVRNSAGKSSSYLKKCRRRSAVGARGSPETNHLIRFIARQQNIKNARKSPLAQDSPSQGSPALYRNVNTLRERISAFQSAFHSIKENEKMTGCLEFSEAGKESEMTDLTRKEGLSACQQSGFPAVLSSKRRRISYQRDSDENLTDAEGKVIGLQIFNIDTDRACAVETSVDLSEISSKLGSTQSGFLVEESLPLSELTETSNALKVADCVVGKGSSDAVSPDTFTAEVSSDAVPDVRSPATPACRRDLPTPKTFVLRSVLKKPSVKMCLESLQEHCNNLYDDDGTHPSLISNLPNCCKEKEAEDEENFEAPAFLNMRKRKRVTFGEDLSPEVFDESLPANTPLRKGGTPVCKKDFSGLSSLLLEQSPVPEPLPQPDFDDKGENLENIEPLQVSFAVLSSPNKSSISETLSGTDTFSSSNNHEKISSPKVGRITRTSNRRNQLVSVVEESVCNLLNTEVQPCKEKKINRRKSQETKCTKRALPKKSQVLKSCRKKKGKGKKSVQKSLYGERDIASKKPLLSPIPELPEVPEMTPSIPSIRRLGSGYFSSNGKLEEVKTPKNPVKRKDLLRHDPDLHMHQGYDKYDVSEFCSYIKSSSSLGNATSDEDPNTNIMNINENKNIPKAKNKSESENEPKAGTDSPVSCASVTEERVASDSPKPALTLQQGQEFSAGGQNAENLCQFFKISPDLNIKCERKDDFLGAAEGKLQCNRLMPNSQKDCHCLGDVLIENTKESKSQSEDLGRKPMESSSVVSCRDRKDRRRSMCYSDGRSLHLEKNGNHTPSSSVGSSVEISLENSELFKDLSDAIEQTFQRRNSETKVRRSTRLQKDLENEGLVWISLPLPSTSQKAKRRTICTFDSSGFESMSPIKETVSSRQKPQMAPPVSDPENSQGPAAGSSDEPGKRRKSFCISTLANTKATSQFKGYRRRSSLNGKGESSLTALERIEHNGERKQ
B1: the binding result was “binds weakly” in test [1], “binds” in test [2] and “binds weakly” in test [3].
